According to patent US20230110188A1 (ARGENX IIP, published 2023):
Changes are numbered by the printed parent chain. No constants are given. Whether binding was seen depends on the method and setting. Some entries that bind do so weakly or less than the wild type. Where a sequence is shown, tags or fusion partners need not be part of it.

T1: human monomeric MuSK FLAG streptavidin (in house produced, batch 27-6-2019) (human) (UniProt O15146)
T1 sequence: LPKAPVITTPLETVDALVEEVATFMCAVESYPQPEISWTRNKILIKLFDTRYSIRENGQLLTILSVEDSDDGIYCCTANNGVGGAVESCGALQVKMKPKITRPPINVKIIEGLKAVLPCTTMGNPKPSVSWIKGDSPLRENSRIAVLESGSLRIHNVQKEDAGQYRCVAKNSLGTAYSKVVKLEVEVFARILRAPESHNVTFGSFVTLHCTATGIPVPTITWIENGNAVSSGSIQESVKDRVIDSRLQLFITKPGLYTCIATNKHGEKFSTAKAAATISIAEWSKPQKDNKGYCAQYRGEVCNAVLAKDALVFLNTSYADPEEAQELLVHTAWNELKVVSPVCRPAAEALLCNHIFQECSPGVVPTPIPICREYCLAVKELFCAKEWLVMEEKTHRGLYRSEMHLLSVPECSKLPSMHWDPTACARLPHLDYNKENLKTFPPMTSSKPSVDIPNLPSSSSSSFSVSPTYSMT

B1: 3D10a (antibody, human IgG1, kappa, L234A L235A, V domains shown)
VH: EVQLVESGGGLVKPGGSLRLSCAASGFTFSASTMAWVRQAPGKGLEWVSSVSGDSHHIYYADSLKGRFTISRDNAKNSLYLQMNSLRAEDTAVYYCARERLLRLGVGFDSWGQGTLVTVSS
VL: DIQMTQSPSSLSASVGDRVTITCRASQRISGFVNWYQQKPGKAPKLLIYAASTLQSGVPSRFSGSGSGTDFTLTISSLQPEDFATYYCQQSYSPLYTFGQGTKLEIKR
B2: 3D9b (antibody, human IgG1, kappa, L234A L235A, V domains shown)
VH: EVQLVESGGGLVKPGGSLRLSCAASGFTFSTYTMHWVRQAPGKGLEWVSSISSRSAYKYYADSVKGRFTISRDNAKNSLYLQMNSLRAEDTAVYYCARDFFQLGPPRFDSWGQGTLVTVSS
VL: B1 VL with G31S, V33L, A50G, T53N, L95S
B3: 3F6c (antibody, human IgG1, kappa, L234A L235A, V domains shown)
VH: EVQLVESGGGLVKPGGSLRLSCAASGFTFSSYTMDWVRQAPGKGLEWVSSIGSNGDYIYYADSVRGRFTISRDNAKNSLYLQMNSLRAEDTAVYYCARGQLAVAGTHFDYWGQGTLVTVSS
VL: B1 VL with R28K, I29V, S30N, G31K, F32Y, Y96S
B4: 4D3 (antibody, human IgG1, kappa, L234A L235A, V domains shown)
VH: B1 VH with A31S, S32Y, A35T, V51I, G53S, D54G, S55G, H57Y, A61T, S110F
VL: B1 VL with R28S, F32Y, V33L, P94A
B5: 3B5 (antibody, V domains shown)
VH: QVQLVQSGAVVAKPGASVQVSCKTSGYTFTGQYLHWVRQAPGQGLEWIGWINPSSGVTKFAEKFEGRATMTRDTSITTAYIDLRSLRSDDTATYYCATLSLGVYYVGMVAWGQGTLVTVSS
VL: ELTQPPSVSVSPGQTATITCSGDGLAQQHVYWFQQRPGQAPLLIIYKDIERPSGIPERFSGSSSGTTAMLTISGVQAEDEADYYCQSGDRTATSVLFGGGTKMTVLG
notes: also called 3B5wt

Biological target: T1, human monomeric MuSK FLAG streptavidin (in house produced, batch 27-6-2019) (human)
Experiment: ELISA, FLAG-captured human monomeric MuSK

binding	Binder
binds	B1
binds	B2
binds	B3
binds	B4
binds	B5

Biological target: T1, human monomeric MuSK FLAG streptavidin (in house produced, batch 27-6-2019) (human)
Experiment: ELISA, hMuSK Full ECD captured on anti-FLAG coat, antibody titrated, anti-human Fc HRP detection, OD450

binding	Binder
binds	B1
binds	B2
binds	B3
binds	B4
